According to PubChem BioAssay AID1487 (National Center for Advancing Translational Sciences (NCATS), 2009):
Among all 200,000 compounds or so, about 25 (0.01%) were called active. Inconclusive means that the source gave no clear call. Such entries were picked first, then a sample of the others. The call rests on the fitted dose curve; in most records, active means well fitted inhibition curve with a large enough effect in the signal ratio, with a control signal flat (not every such curve was filed as active); inconclusive means small, poorly fitted or top-dose-only effect, or effect the other way, or a change in a side signal; inactive means flat fitted curve, though single readings scatter; the % refers to the signal ratio. A potency beside an inconclusive call is a rough fit, not a confirmed value.
On the % scale 0 is the no-effect control and ±100 the full control effect; potency means the concentration at half of the fitted maximal effect.

Experiment: qHTS Assay for Modulators of Lamin A Splicing
Settings: HeLa LMNA splicing GFP/RFP minigene ratio, 48 h; ratio change, negative = inhibition: at 46.1 µM (top of the series) unless noted
In short: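 S3 HeLa cells stably expressing lamin A-EGFP splicing minigene plus DsRed2, 600 cells/well, 48 h compound exposure at 37C. Laser-scanning cytometry; analysed as GFP (500-530 nm)/RFP (575-640 nm) total intensity ratio; 0.5% DMSO vehicle.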
With `COC(=O)c1ccccc1Nc1cc(C)nc2nc(C)nn12` the “ratio change, negative = inhibition” value was inactive: 3.8%.
With `CC[C@H]1OC(=O)[C@H](C)[C@@H](O[C@H]2C[C@@](C)(OC)[C@@H](O)[C@H](C)O2)C(C)[C@@H](O[C@@H]2O[C@H](C)C[C@H](N(C)C)[C@@H]2O)[C@](C)(OC)C[C@@H](C)C(=O)[C@H](C)[C@@H](O)[C@]1(C)O` (some centres undefined) the ratio change, negative = inhibition was inconclusive: 1.33%.
In the case of `COc1ccc(NC(=S)N(Cc2cccnc2)Cc2ccco2)cc1`, the ratio change, negative = inhibition is reported as inconclusive: -7.54% [at 46 µM].
In the case of `CN(C)S(=O)(=O)c1cccc(NC(=O)COc2cccc(C#N)c2)c1`, the ratio change, negative = inhibition is reported as inconclusive: -10.4%.
In the case of `CN(Cc1ccccc1)C(=O)c1nc2ccccn2c1CN1CCCC1c1nccs1` (centres undefined), the ratio change, negative = inhibition is reported as inconclusive: -15.9% [at 46 µM].
With `O=C(COC(=O)c1cc[n+]([O-])cc1)Nc1ccc(Cl)cc1[N+](=O)[O-]` the ratio change, negative = inhibition was inconclusive: -36.5% [at 46 µM].
With `CCc1ccccc1NC(=O)N1CCOc2ccccc21` the ratio change, negative = inhibition was inconclusive: -6.3% [at 46 µM].
With `CCCOc1ccc(C2C(=O)N(C3CCCCCC3)CC(=O)N2Cc2ccccc2OC)cc1OC` (centres undefined) the ratio change, negative = inhibition was inconclusive: -11.5% [at 46 µM].
With `Cc1cccc(CNc2ccnc(-c3ccc(C(=O)N(C)C)cc3)n2)c1` the ratio change, negative = inhibition was inconclusive: 3.75%.
With `COc1ccc(OC)c(NC(=O)Cn2cc(C#N)c3ccccc32)c1` the ratio change, negative = inhibition was inconclusive: -11.7%.
With `CCOC(=O)CN1C(=O)C(O)(c2c(C)[nH]c3ccccc23)c2ccccc21` (centres undefined) the “ratio change, negative = inhibition” value was inactive: -1.54%.
With `CCOC(=O)/C(=N\Nc1ccc(Cl)cc1)Sc1nnc(-c2ccc(OC)cc2)n1C` the “ratio change, negative = inhibition” value was inactive: -8.6%.
For `O=C(NCCCn1ccnc1)c1ccc(N2CCCCC2)c([N+](=O)[O-])c1`, the ratio change, negative = inhibition was inconclusive: 30.6% [at 46 µM].
In the case of `CCCC(=O)Nc1ccc(N2CCN(C(=O)CCC)CC2)cc1`, the ratio change, negative = inhibition is reported as inconclusive: 5.07%.
In the case of `CCN(CC(=O)Nc1cc(C)nn1-c1nc(C)cc(C)n1)Cc1ccccc1`, the “ratio change, negative = inhibition” value is reported as inactive: -18.4%.
In the case of `Cc1cc(C)nc(SCC(=O)NC2=NC(=O)C(C)S2)n1` (centres undefined), the “ratio change, negative = inhibition” value is reported as inactive: 5.57%.
In the case of `Cc1ccc(-n2c(-c3cnccn3)n[nH]c2=S)cc1`, the ratio change, negative = inhibition is reported as inconclusive: 29.3% [at 46 µM].
With `Clc1ccc(-c2nc(C3CCCCC3)no2)cc1` the “ratio change, negative = inhibition” value was inactive: 20.3% [at 46 µM].
In the case of `CCc1ccc2nc3sc(C(=O)N4CCc5ccccc54)c(N)c3cc2c1`, the “ratio change, negative = inhibition” value is reported as inactive: 2.21%.
For `Cc1nn(Cc2ccc(Cl)cc2Cl)c(C)c1NC(=O)CCl`, the Potency was inconclusive: 35.5 µM [rising, single point].
In the case of `O=C(COc1ccc(Cl)cc1Cl)NC(=O)N1CCCCC1`, the “ratio change, negative = inhibition” value is reported as inactive: 10.3%.
In the case of `O=C(Nc1ccccc1C(=O)N1CCOCC1)c1cccc(S(=O)(=O)N2CCCC2)c1`, the “ratio change, negative = inhibition” value is reported as inactive: 4.89%.
In the case of `COCCCNc1nc(NCc2ccccc2OC)c2cnn(C)c2n1`, the “ratio change, negative = inhibition” value is reported as inactive: 6.51% [at 46 µM].
With `Cc1cc(C(=O)NNC(=O)Nc2cccc(C(F)(F)F)c2)no1` the ratio change, negative = inhibition was inconclusive: 27.1% [at 46 µM].
In the case of `Cc1nnc(N/N=C/c2cc([N+](=O)[O-])c(N3CCC(C)CC3)cc2N2CCC(C)CC2)n1N`, the ratio change, negative = inhibition is reported as inconclusive: -3.16%.
In the case of `CC(C)CC(OC(=O)c1cccs1)C(=O)NCc1ccco1` (centres undefined), the “ratio change, negative = inhibition” value is reported as inactive: -3.53%.
For `COc1ccc2c(C)cc(=O)[nH]c2c1`, the “ratio change, negative = inhibition” value was inactive: 2.88%.
With `CCC1=NN2C(=N)/C(=C\c3cccn3-c3c(C)cccc3C)C(=O)N=C2S1` the “ratio change, negative = inhibition” value was inactive: -15.1% [at 46 µM].
For `COc1ccc(C2C(C(=O)Nc3ccccc3)=C(C)Nc3c(C(=O)Nc4ccccc4)cnn32)cc1` (centres undefined), the “ratio change, negative = inhibition” value was inactive: -27% [at 46 µM].
For `CN(C)/C=C(/C(=O)c1ccc(Cl)cc1)n1cncn1`, the “ratio change, negative = inhibition” value was inactive: 16% [at 46 µM].
In the case of `Cc1cc(C(=O)NCC(=O)OCC(=O)Nc2ccc(OC(F)F)cc2)ccc1[N+](=O)[O-]`, the “ratio change, negative = inhibition” value is reported as inactive: 9.68%.
In the case of `Cc1noc(C)c1COC(=O)CCCc1c[nH]c2ccccc12`, the “ratio change, negative = inhibition” value is reported as inactive: 4.86%.
In the case of `COc1cccc(OCC(O)CN2CCN(c3ncccn3)CC2)c1` (centres undefined), the ratio change, negative = inhibition is reported as inconclusive: 16.5%.
For `O=c1cc(CSc2nnc3ccccn23)c2c(ccc3ccccc32)o1`, the ratio change, negative = inhibition was inconclusive: -7.67%.
With `COc1ccc(-c2nn3c(-c4ccc(F)cc4)nnc3s2)cc1` the “ratio change, negative = inhibition” value was inactive: 9.51%.
In the case of `Cc1cc2c(cc1S(=O)(=O)CCC(=O)N1CCC(C)CC1)OCC(=O)N2`, the Potency is reported as inconclusive: 35.5 µM [cytotoxic, partial curve].
In the case of `CCCCN(C)C(=O)c1coc(=O)c2ccccc12`, the “ratio change, negative = inhibition” value is reported as inactive: -8.75%.
In the case of `CC1CN(C(=O)c2ccc3c(c2)OCO3)CC(C)O1` (centres undefined), the “ratio change, negative = inhibition” value is reported as inactive: -2.46%.
With `Cc1ccc(NC(=O)/C=C/c2ccco2)nc1` the ratio change, negative = inhibition was inconclusive: -19%.
With `Nc1nnnn1CC(=O)N/N=C/c1cc([N+](=O)[O-])ccc1Cl` the “ratio change, negative = inhibition” value was inactive: 5.27% [at 46 µM].
With `COc1ccc(OCc2ccc(C(=O)N3CCOCC3)cc2)cc1` the “ratio change, negative = inhibition” value was inactive: -15.6%.
In the case of `O=C(CSc1nc2c(sc3ccccc32)c(=O)n1Cc1ccccc1)NCC1CCCO1` (centres undefined), the “ratio change, negative = inhibition” value is reported as inactive: 1.02%.
With `O=C(CN1CCC(Cc2ccccc2)CC1)NC(=O)NC1CCCCC1` the ratio change, negative = inhibition was inconclusive: -28.1% [at 46 µM].
In the case of `CCOC(=O)c1sc2cccc(F)c2c1S(=O)(=O)NCc1ccccc1Cl`, the “ratio change, negative = inhibition” value is reported as inactive: -7.4% [at 46 µM].
With `COc1cc(/C=C(/C#N)C(=O)NCCc2c[nH]c3ccccc23)ccc1OCc1ccccc1F` the Potency was inconclusive: 5.62 µM [cytotoxic, single point].
For `CC(C)OC(=O)C(C)(C)Oc1ccc(C(=O)c2ccc(Cl)cc2)cc1`, the ratio change, negative = inhibition was inconclusive: 11.4%.
With `CCOC(=O)c1sc(NC(=O)C(OC(C)=O)c2ccccc2)nc1C` (centres undefined) the ratio change, negative = inhibition was inconclusive: 4.68%.
With `Cc1cc(Nc2ccccc2)n(CCOC(=O)COc2ccccc2)n1` the “ratio change, negative = inhibition” value was inactive: 4.08%.
For `CCOC(=O)c1c(N)ssc1=S`, the “ratio change, negative = inhibition” value was inactive: -1.52%.
For `COc1cccc(CN(C)C(=O)c2ccc(S(=O)(=O)N3CCCC3)cc2)c1OC`, the ratio change, negative = inhibition was inconclusive: 5.19%.
For `Cc1c(O)c(=O)n(-c2ccccc2)n1C`, the ratio change, negative = inhibition was inconclusive: -14.5%.
With `Cc1ccc(Cn2c(N3CCCCCC3)nc3c2c(=O)[nH]c(=O)n3C)cc1` the ratio change, negative = inhibition was inconclusive: 27.8%.
For `Cn1c(=O)c(-c2ccc(F)cc2)nc2cnc(N3CCOCC3)nc21`, the “ratio change, negative = inhibition” value was inactive: -7.55%.
In the case of `CCN(CC)C(=S)NC(=O)c1cccnc1`, the Potency is reported as inconclusive: 22.4 µM [activator, single point].
For `CC1CCc2c(sc(Nc3nc4c(F)cccc4s3)c2C(N)=O)C1` (centres undefined), the ratio change, negative = inhibition was inconclusive: -8.05%.
In the case of `CC1(C)OC(=O)C(=NNc2ccccc2)C(=O)O1`, the “ratio change, negative = inhibition” value is reported as inactive: 11.6%.
With `O=C1COc2ccc(C(=O)COC(=O)C3CC(O)CN3S(=O)(=O)c3ccc(Cl)cc3)cc2N1` (centres undefined) the “ratio change, negative = inhibition” value was inactive: -23.2% [at 46 µM].
With `Cc1ccc(-c2ccc(/C=N\NC(=O)C3C(=O)NCC3c3ccccc3)o2)cc1Cl` (centres undefined) the Potency was inconclusive: 35.5 µM [cytotoxic, single point].
In the case of `CC(C)NC(=O)C1CCC(Cn2c(=O)c3sccc3n(CC(=O)Nc3ccccc3)c2=O)CC1` (centres undefined), the Potency is reported as inconclusive: 17.8 µM [rising, single point].
For `O=c1c(-c2ccc(Cl)cc2)cnc2n1CCS2`, the ratio change, negative = inhibition was inconclusive: 2.26% [at 46 µM].
In the case of `CCOC(=O)CN1C(=O)N[C@@H](c2cccc(C(F)(F)F)c2)[C@H](C(=O)OC)[C@H]1C`, the ratio change, negative = inhibition is reported as inconclusive: -7.97% [at 9.22 µM].
For `Oc1c(C(c2ccccc2Cl)N2CCN(Cc3ccccc3)CC2)sc2nc(-c3ccco3)nn12` (centres undefined), the ratio change, negative = inhibition was inconclusive: -17.9% [at 46 µM].
In the case of `CCc1cc(C(=O)c2ccc(C)cc2)c(NC(=O)CCl)s1`, the Potency is reported as inconclusive: 35.5 µM [cytotoxic, single point].
In the case of `NC(=O)c1ccccc1NS(=O)(=O)c1ccccc1`, the “ratio change, negative = inhibition” value is reported as inactive: 2.52%.
For `CC(=NCc1cccc(Cl)c1)c1nc(-c2ccco2)oc1O`, the Potency was inconclusive: 11.2 µM [fluorescent, partial curve, poor fit].
For `Cc1nn(-c2nc3ccccc3[nH]2)c(N)c1-c1ccc(Cl)cc1`, the “ratio change, negative = inhibition” value was inactive: -3.47%.
With `N#Cc1ccc(CSc2nnc(NC(=O)C3CC(=O)N(c4ccc5c(c4)OCCO5)C3)s2)cc1` (centres undefined) the Potency was inconclusive: 35.5 µM [fluorescent, single point].
In the case of `Cc1ccc(C)c(NC(=O)c2cc(S(=O)(=O)NCCc3ccccc3)ccc2F)c1`, the ratio change, negative = inhibition is reported as inconclusive: -15.5% [at 46 µM].
With `O=C(O)CC1(CC(=O)Nc2cc3ccccc3cn2)CCCCC1` the ratio change, negative = inhibition was inconclusive: -21.6% [at 46 µM].
For `COc1cccc(NC(=O)Nc2ccc3nc(N4CCN(C)CC4)cc(C)c3c2)c1`, the ratio change, negative = inhibition was inconclusive: -32.7% [at 46 µM].
With `Cc1ccc(S(=O)(=O)CCC(=O)Nc2cccc(C)c2)cc1` the ratio change, negative = inhibition was inconclusive: 4.74%.
For `O=C(c1ccco1)N(Cc1ccc([N+](=O)[O-])cc1)c1ccc(Br)cc1`, the ratio change, negative = inhibition was inactive: 8.29% [at 0.0737 µM].
With `CCOC(=O)c1sc(NC(=O)COC(=O)Cn2cnc3ccccc32)c(C(=O)OCC)c1C` the “ratio change, negative = inhibition” value was inactive: 5.65%.
For `COc1ccc(C(=O)Nc2cnc3ccccn3c2=O)cc1`, the ratio change, negative = inhibition was inconclusive: 43.2% [at 46 µM].
For `Cn1nnnc1SCCNCc1cc(Cl)ccc1OCc1ccccc1`, the Potency was inconclusive: 35.5 µM [falling, single point].
For `CCc1ccc(NC(=O)CSc2nc3n[nH]c(C)c3c(=N)n2-c2ccc(C)cc2)cc1`, the Potency was inconclusive: 22.4 µM [rising, partial curve].
For `CCOc1ccc(C(CC(=O)O)n2cnnn2)cc1OC` (centres undefined), the ratio change, negative = inhibition was inconclusive: 20.1% [at 9.22 µM].
With `Nc1ccc(N)c(C(=O)O)c1` the ratio change, negative = inhibition was inconclusive: 18.8% [at 46 µM].
With `COc1ccc(C(=O)NC(=S)N2CCCCC2)cc1` the “ratio change, negative = inhibition” value was inactive: 4.03%.
In the case of `COc1ccc(C(=O)C2CC2c2ccc3c(c2)OCO3)cc1` (centres undefined), the ratio change, negative = inhibition is reported as inconclusive: -8.44% [at 46 µM].
For `Cc1[nH]c2ccccc2c1C(c1ccccn1)N1CCC(C)CC1` (centres undefined), the Potency was inconclusive: 11.2 µM [inhibitor, partial curve].
For `CC(C)c1nc(N(C)S(C)(=O)=O)nc(-c2ccc(F)cc2)c1/C=C/C(O)CC(O)CC(=O)O` (centres undefined), the ratio change, negative = inhibition was inconclusive: -20%.
With `COc1cccc(CNC(=O)C(=O)NCCc2ccc(OC)c(OC)c2)c1` the “ratio change, negative = inhibition” value was inactive: -8.85%.
With `CC(=O)NC(c1ccccc1)c1cc([N+](=O)[O-])c2cccnc2c1O` (centres undefined) the Potency was inconclusive: 2.82 µM [cytotoxic, single point].
